Data published in article PMC9301189.
Results are given in words; binding and its absence hold for the method and conditions named. In cells and extracts the contact can be indirect. Some results given as binding are weak or reduced against the parent protein; the word gives no strength.

How the values were obtained:
[1] = molecular target: hnRNPK (human (endogenous in HCT116 and FHC)) (UniProt P61978); assay: co-IP; HCT116 nucleoprotein extracts treated with RNase; precipitated with antibody to hnRNPK (or to hnRNPU) or IgG, protein-A/G Sepharose beads, 4°C; partners detected by western blot
[2] = molecular target: hnRNPK (human (endogenous in HCT116 and FHC)) (UniProt P61978); assay: co-IP; FHC (normal colonic epithelial) nucleoprotein extracts treated with RNase; precipitated with antibody to hnRNPK or IgG, protein-A/G Sepharose beads, 4°C; partners detected by western blot
[3] = molecular target: hnRNPU (human (endogenous in HCT116 and FHC)), Q00839; assay: co-IP; HCT116 nucleoprotein extracts treated with RNase; precipitated with antibody to hnRNPK (or to hnRNPU) or IgG, protein-A/G Sepharose beads, 4°C; partners detected by western blot; details: remark: other sources report otherwise

Binder | binding [1] | binding [2] | binding [3]
hnRNPR (protein, UniProt O43390 1-633) MANQVNGNAVQLKEEEEPMDTSSVTHTEHYKTLIEAGLPQKVAERLDEIFQTGLVAYVDLDERAIDALREFNEEGALSVLQQFKESDLSHVQNKSAFLCGVMKTYRQREKQGSKVQESTKGPDEAKIKALLERTGYTLDVTTGQRKYGGPPPDSVYSGVQPGIGTEVFVGKIPRDLYEDELVPLFEKAGPIWDLRLMMDPLSGQNRGYAFITFCGKEAAQEAVKLCDSYEIRPGKHLGVCISVANNRLFVGSIPKNKTKENILEEFSKVTEGLVDVILYHQPDDKKKNRGFCFLEYEDHKSAAQARRRLMSGKVKVWGNVVTVEWADPVEEPDPEVMAKVKVLFVRNLATTVTEEILEKSFSEFGKLERVKKLKDYAFVHFEDRGAAVKAMDEMNGKEIEGEEIEIVLAKPPDKKRKERQAARQASRSTAYEDYYYHPPPRMPPPIRGRGRGGGRGGYGYPPDYYGYEDYYDDYYGYDYHDYRGGYEDPYYGYDDGYAVRGRGGGRGGRGAPPPPRGRGAPPPRGRAGYSQRGAPLGPPRGSRGGRGGPAQQQRGRGSRGSRGNRGGNVGGKRKADGYNQPDSKRRQTNNQQNWGSQPIAQQPLQQGGDYSGNYGYNNDNQEFYQDTYGQQWK | binds | binds | –
hnRNPR, O43390 1-633 (protein) MANQVNGNAVQLKEEEEPMDTSSVTHTEHYKTLIEAGLPQKVAERLDEIFQTGLVAYVDLDERAIDALREFNEEGALSVLQQFKESDLSHVQNKSAFLCGVMKTYRQREKQGSKVQESTKGPDEAKIKALLERTGYTLDVTTGQRKYGGPPPDSVYSGVQPGIGTEVFVGKIPRDLYEDELVPLFEKAGPIWDLRLMMDPLSGQNRGYAFITFCGKEAAQEAVKLCDSYEIRPGKHLGVCISVANNRLFVGSIPKNKTKENILEEFSKVTEGLVDVILYHQPDDKKKNRGFCFLEYEDHKSAAQARRRLMSGKVKVWGNVVTVEWADPVEEPDPEVMAKVKVLFVRNLATTVTEEILEKSFSEFGKLERVKKLKDYAFVHFEDRGAAVKAMDEMNGKEIEGEEIEIVLAKPPDKKRKERQAARQASRSTAYEDYYYHPPPRMPPPIRGRGRGGGRGGYGYPPDYYGYEDYYDDYYGYDYHDYRGGYEDPYYGYDDGYAVRGRGGGRGGRGAPPPPRGRGAPPPRGRAGYSQRGAPLGPPRGSRGGRGGPAQQQRGRGSRGSRGNRGGNVGGKRKADGYNQPDSKRRQTNNQQNWGSQPIAQQPLQQGGDYSGNYGYNNDNQEFYQDTYGQQWK | – | – | binds
